The list shows a part of the results. The main result of the screen is listed elsewhere. These columns were measured beside it and carry no call. Most of these compounds were active or inconclusive in the main read-out, so they are no random draw. Potencies come from curve fits of mixed quality, noted in brackets.
Assay: qHTS Assay to Find Inhibitors of Chronic Active B-Cell Receptor Signaling
Conditions: ABC-DLBCL IkBa-CBG/CBR reporter, luminescence ratio (green luciferase fused to IkBa over red control in TMD8 lymphoma cells), 4 h
Outline: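 TMD8 human ABC-DLBCL cells with doxycycline-inducible IκBα–green luciferase fusion and unfused red luciferase, in 0.5% FBS medium; compounds up to 46 uM, 4 h at 37C. Green/red luminescence ratio, filter-overlap corrected, fitted to concentration-response curves.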

[1] = measured here: CBR red luminescence, cell number
[2] = measured here: IkBa-CBG green luminescence

Compound	AC50 [1]	AC50 [2]
O=C1c2ccccc2C(=O)N1CCCC[C@]12Cc3ccccc3C(O1)c1c(c3ccccc3oc1=O)O2	0.891 µM [falling, full curve, poor fit]	
Cc1ccc(C)c(-c2csc(NC(=O)C3=COCCO3)n2)c1	0.651 µM [rising, full curve, poor fit]	
Clc1nssc1=Nc1ccccc1	10 µM [falling, partial curve]	
CC1CN(S(=O)(=O)c2cccc(C(F)(F)F)c2)CC(C)O1 (centres undefined)	0.1 µM [falling, full curve, poor fit]	
C/C(=N\Nc1ccc(Cl)c(C(=O)O)c1)c1ccc(N2CCOCC2)cc1	22.4 µM [falling, single point]	
CN(CCOc1ccc(Br)cc1)C(=O)CNC(=O)c1ccc2ccccc2c1	22.4 µM [falling, single point]	
COc1ccc(OCC(=O)N2N=C(C(F)F)CC2(O)C(F)F)cc1 (centres undefined)	0.326 µM [rising, full curve, poor fit]	
CCCCNC(=O)CC1Nc2ccccc2NC1=O (centres undefined)	6.51 µM [rising, single point]	
COc1ccc(C(=O)/C(=C/N(C)C)S(=O)(=O)c2ccccc2)cc1	0.355 µM [rising, partial curve, poor fit]	
COc1ccc(NC(=O)c2ccc(NC(=O)N3CCSc4ncccc43)cc2)cc1	11.2 µM [falling, partial curve]	
CCn1c(Cc2cccc3ccccc23)nnc1SCC(=O)Nc1nccs1	29.1 µM [falling, single point]	
O=C(CN(Cc1ccco1)C(=O)CNS(=O)(=O)c1ccccc1)NCc1ccc(F)cc1	2.06 µM [rising, full curve, poor fit]	
COc1ccccc1N1CCN(C(=O)C2CCN(S(=O)(=O)c3ccc4c(c3)CC(C)N4C(C)=O)CC2)CC1 (centres undefined)	0.1 µM [rising, full curve, poor fit]	
CC(=O)c1cccc(NC(=S)NC(=O)c2ccccc2)c1	23.1 µM [falling, partial curve]	
COc1ccccc1CNn1c(-c2cccc(C)c2)nc2ccccc2c1=O	20.6 µM [falling, single point]	
COC(=O)c1ccc(-c2nc(O)c3cnccn23)cc1	0.562 µM [falling, full curve, poor fit]	
FC(F)(F)c1cccc(NC(=S)Nc2cccc(NC(=S)Nc3cccc(C(F)(F)F)c3)n2)c1	0.708 µM [falling, full curve, poor fit]	25.1 µM [falling, single point]
CCN(CC)CCNC(=O)CCn1nc(-c2ccc(Cl)cc2)ccc1=O	0.112 µM [rising, full curve, poor fit]	
CCOC(=O)Cn1c(=N)n(CCOc2ccc(F)cc2)c2ccccc21	2.82 µM [falling, partial curve, poor fit]	
COc1cccc(/C=N/Nc2nc(C)cc(=O)[nH]2)c1OC	22.4 µM [falling, partial curve, poor fit]	

Reformatted: entries from further up
Clc1nssc1=Nc1ccccc1
  AC50 [1]: 10 µM [falling, partial curve]
CC1CN(S(=O)(=O)c2cccc(C(F)(F)F)c2)CC(C)O1 (centres undefined)
  AC50 [1]: 0.1 µM [falling, full curve, poor fit]

Carrying on.

Compound	AC50 [1]	AC50 [2]
Cn1c(=O)c2c(nc(Br)n2Cc2ccc3ccccc3c2)n(C)c1=O	10 µM [falling, partial curve]	
O=C1/C(=N\S(=O)(=O)c2cccs2)C([n+]2ccc(CCCc3ccccc3)cc2)=C([O-])c2ccccc21	6.31 µM [falling, full curve, poor fit]	
O=C(Cn1ncc(Cl)c(Cl)c1=O)N1CCc2ccccc21	3.55 µM [falling, full curve]	5.01 µM [rising, full curve, poor fit]
COc1ccc(NC(=O)CN(C)C(=O)C2CCCO2)cc1 (centres undefined)	0.461 µM [rising, full curve, poor fit]	
COc1ccccc1CNC(=O)c1ccc2[nH]c(C)c(C)c2c1	10 µM [falling, partial curve]	
Clc1nccnc1-c1ccccc1	23.1 µM [rising, partial curve, poor fit]	
Cc1c(NC(=O)c2cccc(NC(=O)Cc3c(F)cccc3Cl)c2)c(=O)n(-c2ccccc2)n1C	1.84 µM [rising, full curve]	
Cc1nc(C(F)(F)F)c(C(=O)N/N=C(\N)c2ccccn2)s1	10 µM [falling, partial curve]	
CSc1ncc(Cl)c(C(=O)Nc2cccc(Cl)c2)n1	35.5 µM [falling, single point]	
C/C(=N\NC(=S)NC(C)C)c1cccc([N+](=O)[O-])c1	20.6 µM [rising, partial curve]	23.1 µM [falling, single point]
C=C1C(=O)O[C@@H]2[C@H]1[C@@H](OC(=O)/C(C)=C/C)C/C(C)=C\C(=O)/C=C(\C)[C@@H]2O	0.891 µM [falling, full curve, poor fit]	
Cc1nn(-c2cccc(C(F)(F)F)c2)c(Cl)c1/C=N/n1cnnc1	35.5 µM [rising, single point]	
CC(=O)c1c(C)n(CCc2ccc(Cl)cc2)c2ccc(O)cc12	12.6 µM [rising, partial curve, poor fit]	
CCOc1ccc(/C=N/n2nnnc2N)cc1O	3.98 µM [falling, single point]	
Cc1ccc(-n2c(C)cc(C(=O)OCC(=O)N(CC(C)C)C3CCS(=O)(=O)C3)c2C)cc1 (centres undefined)	2.51 µM [falling, full curve]	
COc1cc(C(C)=O)ccc1OCC(=O)Nc1ccc(Cl)c(S(=O)(=O)N2CCOCC2)c1	32.6 µM [falling, partial curve, poor fit]	
CCOC(=O)c1[nH]cnc1C(=O)N1CCN(C(=O)OC(C)(C)C)CC1	0.146 µM [rising, full curve, poor fit]	
Cc1ccccc1C(=O)N1CCN(c2ccc(NC(=O)c3ccco3)cc2Cl)CC1	2.06 µM [falling, partial curve, poor fit]	
CC(=O)N1CC(=O)N(c2ccccc2)C1=O	35.5 µM [rising, single point]	
CCOC(=O)C1=NNC2(CC(=O)N(c3cccc(C)c3)C2=O)C1 (centres undefined)	35.5 µM [rising, single point]	

Compound	AC50 [1]	AC50 [2]
Cn1c(=O)c2c(nc(Br)n2C/C=N/NC(N)=S)n(C)c1=O	20 µM [falling, single point]	35.5 µM [falling, single point]
N#Cc1ccc(C(=O)Nc2nc3ccccc3[nH]2)cc1	2.24 µM [falling, full curve]	
CC(C)N(C(=O)[C@H]1C[C@H](CC(=O)NCCc2ccccn2)C(=O)N2CCc3c([nH]c4cc(-c5ccco5)ccc34)[C@]12C)C(C)C	32.6 µM [falling, single point]	
COc1cc(/C=C2\SC(=S)N(CCC(=O)Nc3ccccn3)C2=O)cc(OC)c1OC	8.91 µM [falling, partial curve]	
Cc1ccc(CC(=O)Nc2cccc(C)n2)cc1	1.46 µM [rising, partial curve, poor fit]	
CCOC(=O)C1=C(N)Oc2c(oc(CO)cc2=O)C1c1c(F)cccc1Cl (centres undefined)	0.146 µM [falling, single point]	
Cc1cccc(N2CCN(C(=O)CSc3ccsc3[N+](=O)[O-])CC2C)c1 (centres undefined)	14.6 µM [falling, partial curve, poor fit]	
Cc1ccc(S(=O)(=O)N(C)CC(=O)NNC(=O)CCC(=O)c2ccc(F)cc2)cc1	29.1 µM [rising, partial curve, poor fit]	
c1ccc(CN2CN=C(Nc3nc4ccccc4s3)NC2)cc1	23.1 µM [rising, single point]	
CN(C(=O)c1ccc(NC(=O)Cc2cccc(NC(=O)C3CCN(C(=O)C4CC4)CC3)c2)cc1)C1CCCC1	13 µM [rising, partial curve]	
C=CCc1cccc2cc(-c3nc4ccc(C)cc4[nH]3)c(=O)oc12	0.251 µM [falling, full curve, poor fit]	
C#CCOCCOCCOCCNc1nc(N2CCN(C(=O)CCCCCCCCCCNC(=O)[C@@H](CCSC)n3cc(CCO)nn3)CC2)nc(N2CCN(C(=O)CCCCCCCCCCNC(=O)[C@H](CCCN=C(N)N)n3cc(C[C@@H](C)CC)nn3)CC2)n1	2.31 µM [rising, full curve]	
COc1cc(C(=O)Nc2nc3ccccc3[nH]2)ccc1OC(F)F	7.08 µM [falling, partial curve]	
CC1(C)CC(=O)CC(=O)/C1=N\Nc1c(Cl)cc(Cl)cc1Cl	0.92 µM [rising, full curve]	
CCOC(=O)CNC(=O)Cn1c(C)cc2ccccc2c1=O	3.16 µM [rising, full curve, poor fit]	
Cc1cc(C)n(-c2nc(C)c(C)c(=O)n2CC(=O)Nc2ccc([N+](=O)[O-])cc2)n1	7.94 µM [rising, partial curve, poor fit]	
CN(C)CCCNC(=S)NCC(c1ccc(Cl)cc1Cl)c1c[nH]c2ccccc12 (centres undefined)	12.6 µM [falling, single point]	
Cn1nc(CC(=O)NCc2ccc(C(F)(F)F)cc2)c2ccccc2c1=O	29.1 µM [rising, single point]	
Cc1ccc(C(C)C)c(OCc2ccc(C(=O)N/N=C/c3ccc(O)cc3O)cc2)c1	2.31 µM [falling, full curve]	
Cc1ccc(-n2cc(-c3ccccc3)c3c(=O)[nH]cnc32)cc1	23.1 µM [falling, single point]	

A different layout for part of the listing above:

| Compound | AC50 [1] | AC50 [2] |
| --- | --- | --- |
| CN(C(=O)c1ccc(NC(=O)Cc2cccc(NC(=O)C3CCN(C(=O)C4CC4)CC3)c2)cc1)C1CCCC1 | 13 µM [rising, partial curve] |  |
| CN(C)CCCNC(=S)NCC(c1ccc(Cl)cc1Cl)c1c[nH]c2ccccc12 (centres undefined) | 12.6 µM [falling, single point] |  |

Source: PubChem BioAssay AID493014 (National Center for Advancing Translational Sciences (NCATS), 2011)
